{"sequences": {"note": "Protein sequences, listed by entry. Tags and fused reporters are not part of them. Lines headed by an entry give the natural chain unless they say otherwise; changes in a name come on top. Residues count along the entry.", "UniProt P01556, residues 22-124": "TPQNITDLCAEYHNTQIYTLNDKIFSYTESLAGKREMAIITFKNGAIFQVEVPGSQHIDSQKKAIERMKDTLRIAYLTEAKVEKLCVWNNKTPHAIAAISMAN", "UniProt P01555": "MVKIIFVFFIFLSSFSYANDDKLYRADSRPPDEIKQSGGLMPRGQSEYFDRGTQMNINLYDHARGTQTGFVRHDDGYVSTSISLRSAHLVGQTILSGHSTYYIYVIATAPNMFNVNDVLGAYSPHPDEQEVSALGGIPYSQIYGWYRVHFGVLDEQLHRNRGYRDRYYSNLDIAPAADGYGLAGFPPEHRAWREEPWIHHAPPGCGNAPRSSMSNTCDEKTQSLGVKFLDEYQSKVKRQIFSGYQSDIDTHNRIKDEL", "UniProt O75460, residues 24-443": "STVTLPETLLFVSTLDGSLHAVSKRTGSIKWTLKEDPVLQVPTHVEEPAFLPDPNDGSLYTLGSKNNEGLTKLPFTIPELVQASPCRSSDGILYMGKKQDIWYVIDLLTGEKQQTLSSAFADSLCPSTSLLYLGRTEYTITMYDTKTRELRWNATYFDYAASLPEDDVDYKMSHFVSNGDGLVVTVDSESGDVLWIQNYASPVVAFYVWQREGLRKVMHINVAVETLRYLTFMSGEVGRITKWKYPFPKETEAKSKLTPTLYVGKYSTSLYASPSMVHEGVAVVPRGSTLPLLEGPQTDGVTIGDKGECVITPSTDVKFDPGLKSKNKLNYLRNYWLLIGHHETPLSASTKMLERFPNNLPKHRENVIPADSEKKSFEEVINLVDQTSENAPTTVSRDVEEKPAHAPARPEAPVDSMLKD"}, "source": "paper doi:10.1101/2023.06.20.545791", "about": "(bioRxiv, 2023)", "key": {"[1]": {"target": "CTxB labeled with Alexa Fluor 647 (UniProt P01556)", "assay": "fluorescence polarisation"}, "[2]": {"target": "CTxA1_(P13-Y30) control peptide (UniProt P01555)", "assay": "fluorescence polarisation"}}, "note": "No constants are given. Whether binding was seen depends on the method and setting."}
{"substance": "GST-IRE1αLD (S24-D443) (from UniProt O75460 24-443) (domain or fragment)", "values": [{"measurement": "binding", "setting": "[1]", "result": "no binding"}]}
{"substance": "IRE1α lumenal domain (IRE1αLD) (from UniProt O75460 24-443) (domain or fragment)", "values": [{"measurement": "binding", "setting": "[2]", "result": "no binding"}]}
